Experimental data as given in patent EP4778941A1 (priority 2023, dated 2025).

Assay: general procedure: solution-phase peptide synthesis; 4-(4,6-dimethoxy-1,3,5-triazin-2-yl)-4-methylmorpholinium chloride
Settings: coupling step, UPLC, ACQUITY UPLC BEHC18 1.7 µm […] 50 mm; run 1

Substance	final HPLC purity [%]
N-((2S,10S)-10-Benzyl-2-cyclopropyl-1-(((1S,9S)-9-ethyl-5-fluoro-9-hydroxy-4-methyl -10,13-dioxo-2,3,9,10,13,15-hexahydro-1H,12H-benzo[de]pyrano[3',4':6,7]indolizino[1, 2-b]quinolin-1-yl)amino)-1,6,9,12,15-pentaoxo-3-oxa-5,8,11,14-tetraazahexadec-16-yl) -6-(2,5-dioxo-2,5-dihydro-1H-pyrrol-1-yl)hexan [9-A]	85
N-((2S,10S)-10-Benzyl-2-cyclopropyl-1-(((1S,9S)-9-ethyl-5-fluoro-9-hydroxy-4-methyl -10,13-dioxo-2,3,9,10,13,15-hexahydro-1H,12H-benzo[de]pyrano[3',4':6,7]indolizino[1, 2-b]quinolin-1-yl)amino)-1,6,9,12,15-pentaoxo-3-oxa-5,8,11,14-tetraazahexadec-16-yl) -6-(2,5-dioxo-2,5-dihydro-1H-pyrrol-1-yl)hexan [9-B]	89
